Results: the supplement of paper PMC11006884
This is a selection; strong and weak results do not stand in their true shares. Single values of this set are uncertain.

Sequences of proteins named here, by UniProt entry; tags and fusion partners are left off. A change or cut given only in a name is not applied to a line headed by its entry.
UniProt Q9Y6D5: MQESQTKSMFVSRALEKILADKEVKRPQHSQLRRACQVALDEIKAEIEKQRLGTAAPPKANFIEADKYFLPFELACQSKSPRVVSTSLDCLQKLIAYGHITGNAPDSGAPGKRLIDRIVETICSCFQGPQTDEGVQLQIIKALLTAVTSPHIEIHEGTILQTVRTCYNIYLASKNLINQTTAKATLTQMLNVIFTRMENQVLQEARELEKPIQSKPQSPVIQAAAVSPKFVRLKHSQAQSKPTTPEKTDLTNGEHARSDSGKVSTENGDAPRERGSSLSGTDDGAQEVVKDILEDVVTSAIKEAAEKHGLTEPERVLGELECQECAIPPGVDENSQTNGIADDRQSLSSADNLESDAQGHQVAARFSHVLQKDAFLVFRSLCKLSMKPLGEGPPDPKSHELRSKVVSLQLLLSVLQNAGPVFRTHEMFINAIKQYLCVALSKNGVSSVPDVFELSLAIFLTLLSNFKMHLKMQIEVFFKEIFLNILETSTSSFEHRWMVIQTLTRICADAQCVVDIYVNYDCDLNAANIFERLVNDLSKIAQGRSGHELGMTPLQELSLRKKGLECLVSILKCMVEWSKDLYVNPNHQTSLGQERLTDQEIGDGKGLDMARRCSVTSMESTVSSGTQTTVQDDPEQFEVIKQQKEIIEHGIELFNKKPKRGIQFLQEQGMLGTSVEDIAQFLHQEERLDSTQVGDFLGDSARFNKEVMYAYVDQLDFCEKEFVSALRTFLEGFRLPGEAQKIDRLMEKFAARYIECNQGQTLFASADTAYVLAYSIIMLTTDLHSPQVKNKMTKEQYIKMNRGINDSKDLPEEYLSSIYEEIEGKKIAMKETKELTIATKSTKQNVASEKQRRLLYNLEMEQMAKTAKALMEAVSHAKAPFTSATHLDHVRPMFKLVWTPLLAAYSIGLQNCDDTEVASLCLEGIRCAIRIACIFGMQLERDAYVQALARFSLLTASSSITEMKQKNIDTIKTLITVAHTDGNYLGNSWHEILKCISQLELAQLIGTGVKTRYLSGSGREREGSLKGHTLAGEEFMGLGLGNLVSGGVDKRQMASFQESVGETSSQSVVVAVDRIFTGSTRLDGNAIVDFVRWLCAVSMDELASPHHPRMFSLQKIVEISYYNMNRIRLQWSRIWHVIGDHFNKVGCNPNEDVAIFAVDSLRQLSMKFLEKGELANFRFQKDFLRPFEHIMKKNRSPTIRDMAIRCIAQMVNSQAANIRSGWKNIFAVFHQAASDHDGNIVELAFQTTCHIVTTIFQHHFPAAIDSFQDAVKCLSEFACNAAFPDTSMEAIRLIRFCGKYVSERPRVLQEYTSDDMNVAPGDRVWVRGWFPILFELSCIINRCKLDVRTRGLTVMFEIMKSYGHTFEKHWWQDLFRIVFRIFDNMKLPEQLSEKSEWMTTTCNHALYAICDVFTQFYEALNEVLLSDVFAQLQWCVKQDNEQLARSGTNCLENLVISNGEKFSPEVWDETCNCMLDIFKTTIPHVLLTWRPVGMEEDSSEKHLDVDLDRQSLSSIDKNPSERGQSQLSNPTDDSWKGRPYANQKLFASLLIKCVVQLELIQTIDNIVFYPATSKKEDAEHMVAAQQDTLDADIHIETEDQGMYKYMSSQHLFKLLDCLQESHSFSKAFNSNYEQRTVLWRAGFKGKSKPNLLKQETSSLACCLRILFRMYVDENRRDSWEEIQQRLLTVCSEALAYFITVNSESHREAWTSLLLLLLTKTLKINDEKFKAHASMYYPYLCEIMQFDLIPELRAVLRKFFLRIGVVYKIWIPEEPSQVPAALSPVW
UniProt Q9Y4W2: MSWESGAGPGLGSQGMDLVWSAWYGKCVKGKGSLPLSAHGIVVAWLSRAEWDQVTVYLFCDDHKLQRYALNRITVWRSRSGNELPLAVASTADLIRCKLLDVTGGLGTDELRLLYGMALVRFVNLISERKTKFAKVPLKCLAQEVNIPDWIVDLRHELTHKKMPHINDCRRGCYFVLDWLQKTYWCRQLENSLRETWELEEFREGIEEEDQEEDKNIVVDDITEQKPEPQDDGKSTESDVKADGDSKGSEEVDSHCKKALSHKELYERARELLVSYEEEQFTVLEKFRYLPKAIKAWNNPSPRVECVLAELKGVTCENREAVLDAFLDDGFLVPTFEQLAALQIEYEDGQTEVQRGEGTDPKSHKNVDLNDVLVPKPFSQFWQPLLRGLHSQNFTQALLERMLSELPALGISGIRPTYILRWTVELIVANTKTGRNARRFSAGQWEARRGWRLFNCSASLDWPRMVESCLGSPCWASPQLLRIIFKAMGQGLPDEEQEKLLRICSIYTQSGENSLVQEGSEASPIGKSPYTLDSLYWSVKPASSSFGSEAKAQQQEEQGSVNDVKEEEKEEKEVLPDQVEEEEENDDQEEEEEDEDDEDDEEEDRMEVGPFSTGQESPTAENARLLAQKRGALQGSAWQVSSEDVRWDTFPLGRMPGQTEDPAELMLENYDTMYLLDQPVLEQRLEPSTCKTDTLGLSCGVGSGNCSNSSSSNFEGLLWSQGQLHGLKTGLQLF
UniProt Q9Y4C2: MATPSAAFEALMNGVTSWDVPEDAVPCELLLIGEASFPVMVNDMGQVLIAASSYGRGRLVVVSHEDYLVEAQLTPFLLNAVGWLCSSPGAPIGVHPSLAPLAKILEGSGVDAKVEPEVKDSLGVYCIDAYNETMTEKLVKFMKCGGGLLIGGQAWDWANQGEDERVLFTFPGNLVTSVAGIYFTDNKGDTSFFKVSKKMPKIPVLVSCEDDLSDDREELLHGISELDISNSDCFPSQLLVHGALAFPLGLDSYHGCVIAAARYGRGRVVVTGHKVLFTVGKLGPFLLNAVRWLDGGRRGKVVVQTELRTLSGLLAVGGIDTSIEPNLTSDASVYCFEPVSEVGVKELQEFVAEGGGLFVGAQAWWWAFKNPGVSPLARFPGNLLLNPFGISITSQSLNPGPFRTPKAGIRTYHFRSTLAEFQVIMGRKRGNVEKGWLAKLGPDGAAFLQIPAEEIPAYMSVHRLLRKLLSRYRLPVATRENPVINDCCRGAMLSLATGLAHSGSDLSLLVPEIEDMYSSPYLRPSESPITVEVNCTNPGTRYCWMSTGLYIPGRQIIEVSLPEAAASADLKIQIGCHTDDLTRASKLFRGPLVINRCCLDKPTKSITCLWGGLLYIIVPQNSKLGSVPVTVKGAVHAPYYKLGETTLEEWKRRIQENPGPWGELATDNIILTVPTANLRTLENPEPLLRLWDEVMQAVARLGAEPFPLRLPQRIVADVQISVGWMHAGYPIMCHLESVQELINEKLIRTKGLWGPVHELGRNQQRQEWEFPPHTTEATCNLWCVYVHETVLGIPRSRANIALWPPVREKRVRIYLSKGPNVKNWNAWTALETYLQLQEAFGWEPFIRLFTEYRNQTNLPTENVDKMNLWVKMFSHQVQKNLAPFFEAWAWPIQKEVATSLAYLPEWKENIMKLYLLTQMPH
UniProt Q9Y4R8, whole entry, looked up: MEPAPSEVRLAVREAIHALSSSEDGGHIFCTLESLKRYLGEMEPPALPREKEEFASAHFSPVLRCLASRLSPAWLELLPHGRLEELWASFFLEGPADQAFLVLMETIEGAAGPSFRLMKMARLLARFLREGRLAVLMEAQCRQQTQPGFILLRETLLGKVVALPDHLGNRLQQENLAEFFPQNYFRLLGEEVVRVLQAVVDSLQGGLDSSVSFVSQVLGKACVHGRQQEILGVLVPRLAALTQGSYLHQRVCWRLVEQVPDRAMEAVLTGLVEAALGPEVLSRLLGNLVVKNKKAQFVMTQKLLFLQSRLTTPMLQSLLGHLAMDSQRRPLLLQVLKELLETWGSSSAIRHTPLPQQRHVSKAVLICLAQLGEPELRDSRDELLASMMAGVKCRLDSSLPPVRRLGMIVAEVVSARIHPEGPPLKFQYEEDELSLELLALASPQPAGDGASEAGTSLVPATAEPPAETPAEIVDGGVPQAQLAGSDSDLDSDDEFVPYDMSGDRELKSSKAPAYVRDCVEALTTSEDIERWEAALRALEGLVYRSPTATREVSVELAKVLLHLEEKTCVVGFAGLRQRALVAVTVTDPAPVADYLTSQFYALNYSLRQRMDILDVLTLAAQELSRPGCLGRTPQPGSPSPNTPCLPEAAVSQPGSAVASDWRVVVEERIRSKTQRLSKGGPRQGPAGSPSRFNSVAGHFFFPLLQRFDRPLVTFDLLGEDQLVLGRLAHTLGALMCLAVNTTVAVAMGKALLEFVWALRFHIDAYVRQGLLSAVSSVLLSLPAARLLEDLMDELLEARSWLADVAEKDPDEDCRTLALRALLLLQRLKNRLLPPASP
UniProt Q9Y508: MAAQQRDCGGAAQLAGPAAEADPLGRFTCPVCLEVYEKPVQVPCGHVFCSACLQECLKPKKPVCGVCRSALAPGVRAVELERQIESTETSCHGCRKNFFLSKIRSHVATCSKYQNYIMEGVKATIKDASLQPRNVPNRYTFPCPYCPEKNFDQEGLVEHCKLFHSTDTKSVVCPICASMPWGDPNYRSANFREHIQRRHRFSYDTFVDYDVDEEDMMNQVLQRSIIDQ
UniProt Q9Y6Y0: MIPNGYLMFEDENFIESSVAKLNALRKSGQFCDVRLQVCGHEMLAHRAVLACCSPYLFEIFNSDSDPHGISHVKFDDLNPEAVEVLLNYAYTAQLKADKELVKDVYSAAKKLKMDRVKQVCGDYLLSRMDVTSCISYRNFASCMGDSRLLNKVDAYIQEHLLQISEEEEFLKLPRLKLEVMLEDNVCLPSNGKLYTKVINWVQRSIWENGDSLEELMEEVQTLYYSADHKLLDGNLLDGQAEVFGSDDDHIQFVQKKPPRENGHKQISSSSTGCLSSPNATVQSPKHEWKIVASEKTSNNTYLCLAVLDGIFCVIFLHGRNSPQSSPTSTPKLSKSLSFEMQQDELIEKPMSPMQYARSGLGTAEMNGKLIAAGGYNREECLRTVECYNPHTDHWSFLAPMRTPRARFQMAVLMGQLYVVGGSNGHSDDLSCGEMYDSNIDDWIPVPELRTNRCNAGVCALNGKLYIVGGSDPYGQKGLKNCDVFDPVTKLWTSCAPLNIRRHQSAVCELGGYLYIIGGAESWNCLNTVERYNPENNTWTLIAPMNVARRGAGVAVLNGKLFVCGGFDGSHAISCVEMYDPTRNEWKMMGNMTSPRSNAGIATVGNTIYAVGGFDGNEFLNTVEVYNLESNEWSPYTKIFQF
UniProt Q9Y5M8: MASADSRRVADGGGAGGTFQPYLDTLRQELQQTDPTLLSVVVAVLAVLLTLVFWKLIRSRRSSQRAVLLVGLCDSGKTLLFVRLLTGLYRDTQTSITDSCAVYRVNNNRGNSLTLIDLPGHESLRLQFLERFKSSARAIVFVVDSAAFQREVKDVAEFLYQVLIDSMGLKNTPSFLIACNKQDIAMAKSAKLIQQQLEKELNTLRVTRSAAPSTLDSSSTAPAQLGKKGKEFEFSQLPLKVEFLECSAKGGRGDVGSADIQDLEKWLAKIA
UniProt Q9Y613: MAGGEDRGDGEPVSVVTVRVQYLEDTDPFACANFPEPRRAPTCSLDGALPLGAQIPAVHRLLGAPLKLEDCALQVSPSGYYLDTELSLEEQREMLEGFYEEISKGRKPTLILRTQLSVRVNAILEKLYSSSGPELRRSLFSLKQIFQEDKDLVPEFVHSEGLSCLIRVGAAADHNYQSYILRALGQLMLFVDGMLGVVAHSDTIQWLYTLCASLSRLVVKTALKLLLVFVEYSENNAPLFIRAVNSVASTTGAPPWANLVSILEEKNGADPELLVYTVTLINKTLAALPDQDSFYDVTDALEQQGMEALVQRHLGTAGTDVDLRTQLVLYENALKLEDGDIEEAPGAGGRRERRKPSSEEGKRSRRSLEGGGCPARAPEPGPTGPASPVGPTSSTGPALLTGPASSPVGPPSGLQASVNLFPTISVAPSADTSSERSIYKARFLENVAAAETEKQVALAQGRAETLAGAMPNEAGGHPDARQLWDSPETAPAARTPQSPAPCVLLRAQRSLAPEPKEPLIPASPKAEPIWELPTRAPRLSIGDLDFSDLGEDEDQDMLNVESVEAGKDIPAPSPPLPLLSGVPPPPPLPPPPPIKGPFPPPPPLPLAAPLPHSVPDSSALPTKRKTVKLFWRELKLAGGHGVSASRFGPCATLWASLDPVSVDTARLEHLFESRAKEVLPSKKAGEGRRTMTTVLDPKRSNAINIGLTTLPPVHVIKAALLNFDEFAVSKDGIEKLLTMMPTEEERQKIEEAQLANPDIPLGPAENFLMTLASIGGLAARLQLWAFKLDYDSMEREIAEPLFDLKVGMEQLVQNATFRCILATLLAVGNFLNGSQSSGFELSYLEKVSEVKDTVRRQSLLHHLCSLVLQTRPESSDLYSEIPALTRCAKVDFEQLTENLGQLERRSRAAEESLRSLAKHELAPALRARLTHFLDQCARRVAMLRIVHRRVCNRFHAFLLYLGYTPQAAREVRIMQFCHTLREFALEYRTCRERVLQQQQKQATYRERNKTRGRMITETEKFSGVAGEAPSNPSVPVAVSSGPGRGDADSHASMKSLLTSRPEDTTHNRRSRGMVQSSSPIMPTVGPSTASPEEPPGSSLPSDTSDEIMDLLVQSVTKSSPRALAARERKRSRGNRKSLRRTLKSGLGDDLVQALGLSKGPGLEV

compound: COC(=O)/C=C/c1ccccc1 [methyl cinnamate]; test: log2 ratio of iodoacetamide-alkyne labeling of the cysteine site, DMSO over compound (competition); higher = stronger covalent engagement of the cysteine by the compound, active = 1 or more; settings: 500 µM; treatment time 1 h; system: HEK293T cell lysate
Outline: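 The log2 competition ratio per cysteine is defined as mean reporter intensity in control channels over mean reporter intensity in compound channels. Lysate from HEK293T cells (2 mg/mL) received electrophile (500 µM) or vehicle for 1 h at ambient temperature, followed by iodoacetamide alkyne for 1 h. Samples were clicked to sCIP-TMT reagents, pooled, trypsin-digested overnight at 37 °C, streptavidin-enriched, acid-eluted and run on Orbitrap Eclipse LC-MS/MS with FAIMS, with quantification in FragPipe. Three replicates with duplicate channels were used, and any cysteine quantified in only one replicate was excluded.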

log2 ratio of iodoacetamide-alkyne labeling, inactive:
ARFGEF2 C1147 (UniProt Q9Y6D5) 0.0989
LAS1L C469 (UniProt Q9Y4W2) -0.251
MTCH2 C49 (UniProt Q9Y6C9) -0.181
TCAF1 C488 (UniProt Q9Y4C2) 0.213
PPME1 C347 (UniProt Q9Y570) -0.0375
TELO2 C518 (UniProt Q9Y4R8) -0.488
CEP170B C1570 (UniProt Q9Y4F5) 0.408
UniProt Q9Y520_C895 0.292
UniProt Q9Y5Q3_C64 0.298
RNF114 C8 (UniProt Q9Y508) 0.377
SAMM50 C65 (UniProt Q9Y512) -0.208
IVNS1ABP C274 (UniProt Q9Y6Y0) 0.573
TSSC4 C99 (UniProt Q9Y5U2) 0.0575
RNF114 C176 (UniProt Q9Y508) 0.0717
LAS1L C306 (UniProt Q9Y4W2) 0.0103
ARFGEF2 C1450 (UniProt Q9Y6D5) 0.231
UCHL5 C9 (UniProt Q9Y5K5) 0.0922
TLN1 C286 (UniProt Q9Y490) 0.33
SRPRB C246 (UniProt Q9Y5M8) 0.225
AUP1 C391 (UniProt Q9Y679) 0.0496
FAM169A C138 (UniProt Q9Y6X4) 0.18
GMPPB C230 (UniProt Q9Y5P6) 0.0759
UniProt Q9Y678_C129 0.236
MAP3K4 C596 (UniProt Q9Y6R4) 0.486
TELO2 C644 (UniProt Q9Y4R8) 0.34
FHOD1 C31 (UniProt Q9Y613) 0.0942
TNPO3 C912 (UniProt Q9Y5L0) 0.344
GMPPB C245 (UniProt Q9Y5P6) 0.321
TELO2 C30 (UniProt Q9Y4R8) 0.208
RAD54B C63 (UniProt Q9Y620) 0.251
NFS1 C426 (UniProt Q9Y697) 0.357

A run of entries of the results above, for reference:
log2 ratio of iodoacetamide-alkyne labeling, inactive:
ARFGEF2 C1147 (UniProt Q9Y6D5) 0.0989
LAS1L C469 (UniProt Q9Y4W2) -0.251
